{"source": "PubChem BioAssay AID504444", "about": "(National Center for Advancing Translational Sciences (NCATS), 2011)", "note": "Out of some 360,000 compounds screened, about 7,500 (2.1%) were called active. Inconclusive means that the source gave no clear call. Such entries were picked first, then a sample of the others. Calls come from the whole dose curve; as a rule, active = well fitted inhibition curve with a large enough effect; inconclusive = small, poorly fitted or top-dose-only effect, or effect the other way; inactive = flat fitted curve, though single readings scatter. Potencies of inconclusive entries are doubtful fits and often do not repeat. % is set by controls: 0 for no effect and ±100 for the full control effect; potency is the fitted concentration of half-maximal effect."}
{"experiment": "Nrf2 qHTS screen for inhibitors; note: nearly all actives have a fitted effect of over 60% in size", "conditions": "A549 ARE-Fluc reporter, luciferase luminescence, 18-24 h; activity change, negative = inhibition: at 46 µM (top of the series)", "method_in_brief": "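Quantitative HTS in A549 cells stably bearing an antioxidant response element-firefly luciferase construct. Inhibition of Nrf2-driven transcription was scored by luminescence after 18-24 h of compound exposure at 37 °C.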"}
{"compound": "Cc1oc(-c2cccc(Cl)c2)nc1Cn1c(SCc2ccccc2F)nc2ccncc21", "Potency": "inconclusive: 13 µM [activator, partial curve, poor fit]"}
{"compound": "O=C(O)COc1ccccc1/C=N/NC(=O)c1cc(-c2ccc(Cl)cc2)nc2ccccc12", "activity change, negative = inhibition": "inactive: 2.31%"}
{"compound": "CCOc1ccccc1NC(=O)Nc1ccncc1", "Potency": "inconclusive: 20.6 µM [falling, single point]"}
{"compound": "Cc1cc(C)cc(NC(=O)Cn2c(C(F)(F)F)nc3ccccc32)c1", "activity change, negative = inhibition": "inactive: -16.1%"}
{"compound": "COc1ccc(C)cc1NC(=O)c1cc2ccccc2cc1OCC(=O)NCc1ccco1", "Potency": "inconclusive: 8.2 µM [falling, partial curve, poor fit]"}
{"compound": "O=C(O)c1cccc(S(=O)(=O)Nc2ccccc2Cc2ccccc2)c1", "Potency": "inconclusive: 20.6 µM [falling, partial curve, poor fit]"}
{"compound": "Cc1ccc(S(=O)(=O)N2CCCCC2)cc1NC(=O)COC(=O)c1cccn1C", "Potency": "inconclusive: 20.6 µM [falling, single point]"}
{"compound": "Cc1ccccc1NC(=S)N=Nc1c(O)n(C)c2ccc(S(=O)(=O)N3CCOCC3)cc12", "Potency": "inconclusive: 18.4 µM [falling, single point]"}
{"compound": "N#C/C(=C\\C1CC2C=CC1C2)c1nc2ccccc2[nH]1", "note": "(centres undefined)", "Potency": "inconclusive: 29.1 µM [falling, single point]"}
{"compound": "COCCNC(=O)c1ccc(NS(=O)(=O)c2ccc3[nH]c(=O)[nH]c3c2)cc1", "Potency": "inconclusive: 2.31 µM [activator, partial curve]"}
{"compound": "CCOc1ccc(NC(=S)NC(=O)/C=C/c2ccc(C)cc2)c([N+](=O)[O-])c1", "Potency": "inconclusive: 29.1 µM [falling, single point]"}
{"compound": "CC1CCC(=C(C#N)c2nc(-c3cc4ccccc4oc3=O)cs2)CC1", "note": "(centres undefined)", "Potency": "inconclusive: 1.84 µM [activator, partial curve, poor fit]"}
{"compound": "COC(=O)C1=CN(Cc2ccc(C)cc2)C=C(C(=O)OC)C1c1cc(OC)c(OC)c(OC)c1", "Potency": "inconclusive: 18.4 µM [falling, single point]"}
{"compound": "O=C(COc1ccc(Cl)cc1)c1ccc(O)cc1O", "Potency": "active: 7.31 µM"}
{"compound": "CSc1ccc(Cl)c(C(=O)NCCOc2ccccc2)c1", "Potency": "inconclusive: 16.4 µM [activator, partial curve, poor fit]"}
{"compound": "Cc1ccc(S(=O)(=O)N2CCN(C(=O)c3cc(C4CC4)nc4c3cnn4C(C)C)CC2)cc1", "Potency": "inconclusive: 23.1 µM [falling, partial curve, poor fit]"}
{"compound": "NC(=O)CSc1nc2cc(Cl)ccc2c(=O)n1C1CCCCC1", "Potency": "inconclusive: 25.9 µM [falling, single point]"}
{"compound": "Cn1c(CSc2nc3ccc(Br)cc3[nH]2)nc2ccccc21", "Potency": "active: 20.6 µM"}
{"compound": "Cc1nn(C)c2c1c(C(F)(F)F)cc(=O)n2C(C)C(=O)NCc1ccccc1Cl", "note": "(centres undefined)", "Potency": "inconclusive: 20.6 µM [activator, single point]"}
{"compound": "Cc1cc(NC(=O)c2cc(-c3cccs3)nc3ccccc23)no1", "activity change, negative = inhibition": "inactive: -8.02%"}
{"compound": "Cn1c2ccccc2c2nnc(SCC(=O)Nc3cccc(C(=O)O)c3)nc21", "Potency": "inconclusive: 4.11 µM [falling, single point]"}
{"compound": "CC1C(=O)N2CCCc3cc(NC(=O)COc4ccc(Cl)cc4)cc1c32", "note": "(centres undefined)", "Potency": "inconclusive: 18.4 µM [falling, single point]"}
{"compound": "C=CCNC(=S)NN=C1CCCCCCC1", "activity change, negative = inhibition": "inactive: 2.12%"}
{"compound": "Fc1ccc(NC(=S)N2CCN(c3ncccn3)CC2)cc1", "activity change, negative = inhibition": "inactive: -1.1%"}
{"compound": "Cc1ccc(NC(=O)Cn2nnc(C(=O)NCc3cccs3)c2N)cc1Cl", "Potency": "inconclusive: 16.4 µM [activator, single point]"}
{"compound": "Cc1cc(F)ccc1S(=O)(=O)Nc1ncnc2scc(-c3ccc(F)cc3)c12", "Potency": "inconclusive: 20.6 µM [falling, partial curve, poor fit]"}
{"compound": "O=C(/C=C/c1ccccc1)N1CCN(c2ccccn2)CC1", "Potency": "inconclusive: 23.1 µM [activator, partial curve]"}
{"compound": "C=CCNc1nc(Nc2ccccc2F)nc(OCC)n1", "Potency": "inconclusive: 9.2 µM [activator, partial curve]"}
{"compound": "Cc1ccc(C(=O)NCC(=O)N(C)CC(=O)Nc2c(Cl)cccc2Cl)s1", "activity change, negative = inhibition": "inactive: 16%"}
{"compound": "Cc1cccc(NC(=O)CCc2c(C)nc3c(c(C)nn3C(C)(C)C)c2C)c1C", "Potency": "active: 18.4 µM"}
{"compound": "O=C1COc2ccc(-c3cc(-c4ccccc4)c4c(n3)-c3cc(Cl)ccc3OC4)cc2N1", "activity change, negative = inhibition": "inactive: 6.34%"}
{"compound": "CCN(C(=O)c1cn(CC)c(=O)c2cc(OC)c(OC)cc12)c1ccc(C)c(C)c1", "Potency": "inconclusive: 1.46 µM [falling, full curve, poor fit]"}
{"compound": "O=C(CC(=O)c1ccccc1O)c1ccc(F)cc1", "Potency": "inconclusive: 8.2 µM [falling, partial curve, poor fit]"}
{"compound": "O=C(/C=C/c1ccccc1Cl)Nn1cnc2ccccc2c1=O", "Potency": "inconclusive: 2.06 µM [falling, partial curve, poor fit]"}
{"compound": "CCOc1cc(CNn2cn[nH]c2=S)cc(Cl)c1OCc1ccccc1F", "Potency": "inconclusive: 29.1 µM [falling, single point]"}
{"compound": "COc1ccc(C(=O)Nc2ccc(N3CCOCC3)cc2)cc1OC", "activity change, negative = inhibition": "inactive: -2.85%"}
{"compound": "COc1ccc(N=Nc2ccc(O)c3ncccc23)cc1", "Potency": "active: 11.6 µM"}
{"compound": "Cc1ccc(Cl)cc1N1CCN(C(=O)c2cc3c(-c4ccccc4F)nn(C)c3s2)CC1", "activity change, negative = inhibition": "inactive: 4.85%"}
{"compound": "CCn1c(SCC(=O)Nc2cccc(S(=O)(=O)N(C)c3ccccc3)c2)nnc1C1CC1", "Potency": "inconclusive: 32.6 µM [falling, single point]"}
{"compound": "Fc1ccc(-c2cn3cc(Cc4ccccc4)sc3n2)cc1", "Potency": "inconclusive: 14.6 µM [falling, single point]"}
{"compound": "COc1ccc(NC(=O)CSc2nc(-c3ccco3)cc(C(F)(F)F)n2)cc1Cl", "Potency": "active: 7.31 µM"}
{"compound": "CCCc1c(C(=O)N/N=C/c2cccs2)nnn1-c1nonc1N", "activity change, negative = inhibition": "inactive: 14.7%"}
{"compound": "Cc1ccc(Oc2c(C(N)=O)cc([N+](=O)[O-])cc2[N+](=O)[O-])cc1", "Potency": "active: 5.8 µM"}
{"compound": "CC(=O)Nc1nc2ccccc2n1Cc1ccc(Cl)cc1", "Potency": "inconclusive: 14.6 µM [falling, single point]"}
